This is an account of results in PubChem BioAssay AID330 (DTP/NCI, 2004).

The list is a part of this screen's results and no random one: it is rich in T/C values a quarter to a half above the control, in often repeated tests (any T/C) and in doses without a T/C. Other doses and runs of a compound stand elsewhere. T/C gives the treated animals as a percentage of the vehicle group. Some doses have a count of surviving animals in place of a T/C: the source holds a T/C of zero for them, seemingly a mark for toxic or unscored doses. Some doses without a T/C left all or most animals alive at the check, yet need not have been tolerated: survival well below the control is almost never listed, so the zero probably covers shortened survival too. Counts of survivors are from the toxicity check (mostly the fifth day) where no day follows; animals may have died later. Schedule codes are those of the source, taken here to give the interval after Q, in days (D) or hours (H), and the number of doses after X. Some doses were run more than once; their values stand side by side, smallest first. Where survival is the endpoint, the PubChem record calls one and a half times the control and up active, and a quarter to a half above the control has no call in these data; cut-offs in other NCI protocols can differ. Some T/C values carry the count of animals alive at the toxicity check (mostly the fifth day); where none is given, no animal had died by that day.

The subject of this assay is P388 leukemia ip, CD2F1 mice, survival T/C. The experiment in a line: NCI In Vivo Anticancer Drug Screen. Data for tumor model P388 Leukemia (intraperitoneal) in CD2F1 (CDF1) mice. Particulars: T/C endpoint: median survival time, higher T/C = longer survival.
[1] abbreviates: dose: 240.0 mg/kg/injection, schedule: Q01DX005 (ip), vehicle: saline with Tween-80.
Where [2] appears, read: dose: 200.0 mg/kg/injection, schedule: Q01DX005 (ip), vehicle: saline with Tween-80.
Where [3] appears, read: dose: 240.0 mg/kg/injection, schedule: Q01DX005 (ip), vehicle: Klucel (hydroxypropylcellulose) (HPC).
Where [4] appears, read: dose: 100.0 mg/kg/injection, schedule: Q01DX001 (ip), vehicle: Klucel (hydroxypropylcellulose) (HPC).
[5] abbreviates: dose: 200.0 mg/kg/injection, schedule: Q01DX001 (ip), vehicle: Klucel (hydroxypropylcellulose) (HPC).
[6] abbreviates: dose: 400.0 mg/kg/injection, schedule: Q04DX003 (ip), vehicle: Klucel (hydroxypropylcellulose) (HPC).

Take `Cc1ncn(-c2ccccc2)c(=O)c1N=Cc1ccccc1`: the survivor count under setting [1] is listed as 4 of 6.

As to `CCOC(=O)Nc1cc2c(c(N)n1)N=C(c1ccc(N)cc1)CN2`, the T/C (dose: 50.0 mg/kg/injection, schedule: Q01DX001 (ip), vehicle: saline) was 135 % of control [5 of 6 alive]. Further, the survivor count (dose: 100.0 mg/kg/injection, schedule: Q01DX001 (ip), vehicle: saline) is given as 0 of 6.

Regarding `CN1[C@@H]2CC[C@H]1CC(O)(c1ccccc1)C2` (some centres not stated), the survivor count is reported as 5 of 6 (dose: 100.0 mg/kg/injection, schedule: Q01DX005 (ip), vehicle: saline with Tween-80) and 0 of 6 under setting [2].

Take `CCOc1ccc(N=Nc2c(C)nn(C(N)=S)c2OCC)cc1`: the survivor count reads like this: (dose: 60.0 mg/kg/injection, schedule: Q01DX005 (ip), vehicle: Klucel (hydroxypropylcellulose) (HPC)) 1 of 6 and 3 of 6; (dose: 120.0 mg/kg/injection, schedule: Q01DX005 (ip), vehicle: Klucel (hydroxypropylcellulose) (HPC)) 0 of 6; under setting [3], 0 of 6.

For `CC(C#N)(C#N)N=Nc1ccc(Br)cc1`, the survivor count under setting [2] is 3 of 6.

With `O=C(Nc1cccc2cccnc12)C1=C(Nc2cccc3cccnc23)CCC1`, the survivor count (dose: 100.0 mg/kg/injection, schedule: Q01DX009 (ip), vehicle: saline with Tween-80) is 6 of 6.

For the molecule `CC([OH2+])CNCCN.CC([OH2+])CNCCN.[Ni+2].[O-][Cl+3]([O-])([O-])[O-]` (configuration not stated), the survivor count (dose: 50.0 mg/kg/injection, schedule: Q01DX009 (ip), vehicle: saline) is on record as 6 of 6.

On to `COc1cc(C)c(C)cc1C1(c2cc(C)c(C)cc2O)C(=O)c2ccccc2C1=O`, for which the survivor count (dose: 200.0 mg/kg/injection, schedule: Q01DX009 (ip), vehicle: saline) is recorded as 5 of 6.

Consider `O=C1C(c2ccccc2)=C(c2ccccc2)/C1=C\c1ccc(Cl)cc1Cl`, for which, under “dose: 200.0 mg/kg/injection, schedule: Q01DX009 (ip), vehicle: Klucel (hydroxypropylcellulose) (HPC)”, the survivor count is 6 of 6.

Turning to `Nc1nc(=S)c2[nH]c(-c3ccccc3)nc2[nH]1`, under “dose: 200.0 mg/kg/injection, schedule: Q01DX005 (ip), vehicle: other”, the survivor count is recorded as 3 of 6.

Turning to `COC1(OC)OC(c2ccc([N+](=O)[O-])cc2)=C(c2ccc([N+](=O)[O-])cc2)OC1(OC)OC`, the survivor count under setting [3] is reported as 1 of 6.

In the case of `Cc1cc(C)c(C#N)c(SCC#CCSc2nc(C)cc(C)c2C#N)n1`, the survivor count is given as 5 of 5 (dose: 12.5 mg/kg/injection, schedule: Q01DX005 (ip), vehicle: saline with Tween-80); 5 of 5 (dose: 25.0 mg/kg/injection, schedule: Q01DX005 (ip), vehicle: saline with Tween-80); 5 of 5 (dose: 50.0 mg/kg/injection, schedule: Q01DX005 (ip), vehicle: saline with Tween-80).

Consider `Oc1ccc(Nc2ccc(N(CCCl)CCCl)cc2)c2ccccc12`, for which the T/C (dose: 12.5 mg/kg/injection, schedule: Q01DX001 (ip), vehicle: Klucel (hydroxypropylcellulose) (HPC)) was 132 % of control and the T/C (dose: 25.0 mg/kg/injection, schedule: Q01DX001 (ip), vehicle: Klucel (hydroxypropylcellulose) (HPC)) is 139 % of control [5 of 6 alive]. Also, the survivor count runs as follows: under setting [4], 3 of 6; under setting [5], 5 of 6.

For the molecule `CCC(C)C1NC(=O)C2CCCN2C(=O)C(CC2CO2)OC(=O)CCNC(=O)C(C)N(C)C(=O)C(C(C)C)N(C)C1=O` (configuration not stated), the survivor count is, setting by setting: (dose: 6.25 mg/kg/injection, schedule: Q01DX005 (ip), vehicle: water) 0 of 6; (dose: 12.5 mg/kg/injection, schedule: Q01DX005 (ip), vehicle: water) 0 of 6; (dose: 25.0 mg/kg/injection, schedule: Q01DX005 (ip), vehicle: water) 0 of 6; (dose: 50.0 mg/kg/injection, schedule: Q01DX005 (ip), vehicle: water) 0 of 6; (dose: 100.0 mg/kg/injection, schedule: Q01DX005 (ip), vehicle: water) 0 of 6; (dose: 200.0 mg/kg/injection, schedule: Q01DX005 (ip), vehicle: water) 0 of 6.

On to `S=C1SCCCN1c1ccccc1`, for which the survivor count under setting [6] is recorded as 0 of 6.

As to `CC1(C)CC([N+](C)(C)CCCCCC[N+](C)(C)C2CC(C)(C)N(O)C(C)(C)C2)CC(C)(C)N1O`, the survivor count (dose: 100.0 mg/kg/injection, schedule: Q04DX003 (ip), vehicle: saline) is 1 of 6 and 4 of 6; the survivor count (dose: 200.0 mg/kg/injection, schedule: Q04DX003 (ip), vehicle: saline) was 0 of 6.

`Oc1ccc2c(c1)OC1(c3ccccc3)CC2N=CN1` (configuration not stated): where the note is “dose: 200.0 mg/kg/injection, schedule: Q01DX009 (ip), vehicle: suspension in saline”, the survivor count is 1 of 6.

Turning to `COC12C(COC(=O)NCCO)C3=C(C(=O)C(C)=C(N)C3=O)N1CC1NC12` (configuration not stated), the T/C (dose: 4.5 mg/kg/injection, schedule: Q01DX009 (ip), vehicle: Klucel (hydroxypropylcellulose) (HPC)) is 137 % of control; the T/C (dose: 9.0 mg/kg/injection, schedule: Q01DX009 (ip), vehicle: Klucel (hydroxypropylcellulose) (HPC)) is 146 % of control; the T/C (dose: 28.0 mg/kg/injection, schedule: Q01DX009 (ip), vehicle: Klucel (hydroxypropylcellulose) (HPC)) was 126 % of control. The survivor count by setting is: (dose: 43.0 mg/kg/injection, schedule: Q01DX009 (ip), vehicle: Klucel (hydroxypropylcellulose) (HPC)) 10 of 10 and 6 of 6; (dose: 65.0 mg/kg/injection, schedule: Q01DX009 (ip), vehicle: Klucel (hydroxypropylcellulose) (HPC)) 9 of 10; (dose: 100.0 mg/kg/injection, schedule: Q01DX009 (ip), vehicle: Klucel (hydroxypropylcellulose) (HPC)) 10 of 10.

Regarding `Cc1oc2ccccc2c(=O)c1CN1CCOCC1`, where the note is “dose: 240.0 mg/kg/injection, schedule: Q01DX005 (ip), vehicle: saline”, the survivor count is listed as 0 of 6.

As for `CCCCN(CCCC)CC(O)c1cccc2cc(Cl)ccc12` (configuration not stated), the survivor count under setting [2] is 3 of 5.

As for `Cc1c2cnccc2c(C)c2c1c1ccccc1n2CC1CO1` (configuration not stated), the T/C is, setting by setting: (dose: 2.75 mg/kg/injection, schedule: Q01DX009 (ip), vehicle: saline with Tween-80) 132 % of control; (dose: 3.13 mg/kg/injection, schedule: Q01DX009 (ip), vehicle: saline with Tween-80) 146 % of control; (dose: 5.5 mg/kg/injection, schedule: Q01DX009 (ip), vehicle: saline with Tween-80) 149 % of control; (dose: 16.0 mg/kg/injection, schedule: Q01DX009 (ip), vehicle: Klucel (hydroxypropylcellulose) (HPC)) 134 % of control; (dose: 32.0 mg/kg/injection, schedule: Q01DX009 (ip), vehicle: Klucel (hydroxypropylcellulose) (HPC)) 145 % of control; (dose: 32.0 mg/kg/injection, schedule: Q04DX003 (ip), vehicle: Klucel (hydroxypropylcellulose) (HPC)) 130 % of control. Besides, the T/C was 130 % of control (dose: 37.5 mg/kg/injection, schedule: Q01DX009 (ip), vehicle: saline with Tween-80) and 139 % of control (dose: 64.0 mg/kg/injection, schedule: Q04DX003 (ip), vehicle: Klucel (hydroxypropylcellulose) (HPC)).

For the molecule `Clc1ccc(COCc2ccccc2Cn2ccnc2)cc1`, the survivor count under setting [1] is recorded as 1 of 6.

Turning to `COc1nc(N)c2ncn(C3CCCO3)c2n1` (configuration not stated), the survivor count (dose: 50.0 mg/kg/injection, schedule: Q01DX001 (ip), vehicle: Klucel (hydroxypropylcellulose) (HPC)) is 1 of 6; the survivor count under setting [4] is on record as 3 of 6; the survivor count under setting [5] is reported as 1 of 6; the survivor count (dose: 400.0 mg/kg/injection, schedule: Q01DX001 (ip), vehicle: Klucel (hydroxypropylcellulose) (HPC)) is listed as 0 of 6.

On to `C/C(=N\N=C(/[Se])N1CCCCC1C)c1ccccn1` (configuration not stated), for which the survivor count is given as 6 of 6 (dose: 50.0 mg/kg/injection, schedule: Q04DX003 (ip), vehicle: Klucel (hydroxypropylcellulose) (HPC)); 6 of 6 (dose: 100.0 mg/kg/injection, schedule: Q04DX003 (ip), vehicle: Klucel (hydroxypropylcellulose) (HPC)); 5 of 6 (dose: 200.0 mg/kg/injection, schedule: Q04DX003 (ip), vehicle: Klucel (hydroxypropylcellulose) (HPC)); 3 of 6 under setting [6].
